B1: TpoR.TIAF1: SEQ ID NO: 8; TpoR fused to TIAF1 cytoplasmic domain (protein)
chain: MPSWALFMVTSCLLLAPQNLAQVSSQDVSLLASDSEPLKCFSRTFEDLTCFWDEEEAAPSGTYQLLYAYPREKPRACPLSSQSMPHFGTRYVCQFPDQEEVRLFFPLHLWVKNVFLNQTRTQRVLFVDSVGLPAPPSIIKAMGGSQPGELQISWEEPAPEISDFLRYELRYGPRDPKNSTGPTVIQLIATETCCPALQRPHSASALDQSPCAQPTMPWQDGPKQTSPSREASALTAEGGSCLISGLQPGNSYWLQLRSEPDGISLGGSWGSWSLPVTVDLPGDAVALGLQCFTLDLKNVTCQWQQQDHASSQGFFYHSRARCCPRDRYPIWENCEEEEKTNPGLQTPQFSRCHFKSRNDSIIHILVEVTTAPGTVHSYLGSPFWIHQAVRLPTPNLHWREISSGHLELEWQHPSSWAAQETCYQLRYTGEGHQDWKVLEPPLGARGGTLELRPRSRYRLQLRARLNGPTYQGPWSSWSDPTRVETATETAWISLVTALHLVLGLSAVLGLLLLRWQFPAHYRRLRHALWPSLPDLHRVLGQYLRDTAALSPPKATVSDTCEEVEPSLLEILPKSSERTPLPLCSSQAQMDYRRLQPSCLGTMPLSVCPPMAESGSCCTTHIANHSYLPLSYWQQPMSSPSSPFREQSFLCAAGDAGEESRVQVLKNEVRRGSPVLLGWVEQAYADKCVCGPSAPPAPTPPSLSQRVMCNDLFKVNPFQLQQFRADPSTASLLLCPGGLDHKLNLRGKAWG
modifications: TpoR-TIAF1; MISC_FEATURE (1)..(491): TpoR Extracellular Domain; MISC_FEATURE (492)..(513): TpoR Transmembrane Domain; MISC_FEATURE (514)..(635): TpoR Cytoplasmic Domain; MISC_FEATURE (636)..(750): TIAF1 Cytoplasmic Domain
B2: TpoR.IL2rβ-cyt.TpoR-cyt: SEQ ID NO: 4; TpoR EC and TM, IL2rB cytoplasmic domain, N-terminally truncated TpoR cytoplasmic domain (protein)
chain: MPSWALFMVTSCLLLAPQNLAQVSSQDVSLLASDSEPLKCFSRTFEDLTCFWDEEEAAPSGTYQLLYAYPREKPRACPLSSQSMPHFGTRYVCQFPDQEEVRLFFPLHLWVKNVFLNQTRTQRVLFVDSVGLPAPPSIIKAMGGSQPGELQISWEEPAPEISDFLRYELRYGPRDPKNSTGPTVIQLIATETCCPALQRPHSASALDQSPCAQPTMPWQDGPKQTSPSREASALTAEGGSCLISGLQPGNSYWLQLRSEPDGISLGGSWGSWSLPVTVDLPGDAVALGLQCFTLDLKNVTCQWQQQDHASSQGFFYHSRARCCPRDRYPIWENCEEEEKTNPGLQTPQFSRCHFKSRNDSIIHILVEVTTAPGTVHSYLGSPFWIHQAVRLPTPNLHWREISSGHLELEWQHPSSWAAQETCYQLRYTGEGHQDWKVLEPPLGARGGTLELRPRSRYRLQLRARLNGPTYQGPWSSWSDPTRVETATETAWISLVTALHLVLGLSAVLGLLLLNCRNTGPWLKKVLKCNTPDPSKFFSQLSSEHGGDVQKWLSSPFPSSSFSPGGLAPEISPLEVLERDKVTQLLLQQDKVPEPASLSSNHSLTSCFTNQGYFFFHLPDALEIEACQVYFTYDPYSEEDPDEGVAGAPTGSSPQPLQPLSGEDDAYCTFPSRDDLLLFSPSLLGGPSPPSTAPGGSGAGEERMPPSLQERVLGQYLRDTAALSPPKATVSDTCEEVEPSLLEILPKSSERTPLPLCSSQAQMDYRRLQPSCLGTMPLSVCPPMAESGSCCTTHIANHSYLPLSYWQQP
modifications: TpoR.IL2rB-cyt.TpoR-cyt; MISC_FEATURE (1)..(491): TpoR Extracellular Domain; MISC_FEATURE (492)..(513): TpoR Transmembrane Domain; MISC_FEATURE (514)..(709): IL2rB Cytoplasmic Domain; MISC_FEATURE (710)..(808): TpoR Cytoplasmic Domain with N-terminal Truncation
B3: TpoR.SLAM: SEQ ID NO: 5; TpoR fused to SLAM cytoplasmic domain (protein)
chain: MPSWALFMVTSCLLLAPQNLAQVSSQDVSLLASDSEPLKCFSRTFEDLTCFWDEEEAAPSGTYQLLYAYPREKPRACPLSSQSMPHFGTRYVCQFPDQEEVRLFFPLHLWVKNVFLNQTRTQRVLFVDSVGLPAPPSIIKAMGGSQPGELQISWEEPAPEISDFLRYELRYGPRDPKNSTGPTVIQLIATETCCPALQRPHSASALDQSPCAQPTMPWQDGPKQTSPSREASALTAEGGSCLISGLQPGNSYWLQLRSEPDGISLGGSWGSWSLPVTVDLPGDAVALGLQCFTLDLKNVTCQWQQQDHASSQGFFYHSRARCCPRDRYPIWENCEEEEKTNPGLQTPQFSRCHFKSRNDSIIHILVEVTTAPGTVHSYLGSPFWIHQAVRLPTPNLHWREISSGHLELEWQHPSSWAAQETCYQLRYTGEGHQDWKVLEPPLGARGGTLELRPRSRYRLQLRARLNGPTYQGPWSSWSDPTRVETATETAWISLVTALHLVLGLSAVLGLLLLRWQFPAHYRRLRHALWPSLPDLHRVLGQYLRDTAALSPPKATVSDTCEEVEPSLLEILPKSSERTPLPLCSSQAQMDYRRLQPSCLGTMPLSVCPPMAESGSCCTTHIANHSYLPLSYWQQPRRRGKTNHYQTTVEKKSLTIYAQVQKPGPLQKKLDSFPAQDPCTTIYVAATEPVPESVQETNSITVYASVTLPES
modifications: TpoR.SLAM; MISC_FEATURE (1)..(491): TpoR Extraceullular Domain; MISC_FEATURE (492)..(513): TpoR Transmembrane Domain; MISC_FEATURE (514)..(635): TpoR Cytoplasmic Domain; MISC_FEATURE (636)..(710): SLAM Cytoplasmic Domain

tested on: Jurkat E6.1 cells; test: Expression of CrGFR in transduced Jurkat E6.1 cells (anti-CD110-PE flow cytometry); type: cell-based, human; conditions: Jurkat E6.1 cells infected with lentiviral particles, analysed after 48 h

Expression of CrGFR (PE conjugated anti-CD110 antibody), low expression profile:
B1
B2
B3
